Source: PubChem BioAssay AID1259405 (NCATS, 2018)

Purpose: 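Silenced genes that increase secreted GFP made by CHO cells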 (primary screen)
System: Chinese hamster CHO-K1 ovary cells with stable secreted eGFP expression
Reagent: single siRNA against mouse genes, 0.8 pmol siRNA per well (2 µl of 400 nM stock)
Time to read-out: 3 days
Detection: 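Per-well intracellular GFP measured by laser scanning cytometry, plus viability from ATP luminescence, each relative to plate median of non-targeting control wells, in %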
Direction: GFP, % of control: higher = more GFP per well, higher productivity; viability (ATP), % of control: higher = more viable cells (more ATP)
Hit rule: 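Called active when intracellular GFP, relative to negative control, is at or above 120%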
The deposit covers about 50,000 reagents; this is a part drawn at random. About 4,000 of them (8%) count as active. 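Mouse siRNA library applied to hamster cells; one well for each siRNA.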 Reagents against one gene are numbered here.

GFP, % of control	viability (ATP), % of control	outcome	gene	siRNA no.
66.1	77.9	inactive	Anapc16	1
54.1	56.3	inactive	Anapc16	2
86.9	136	inactive	Anapc16	3
79.9	100	inactive	Gfra3	1
37.8	70.9	inactive	Gfra3	2
77.9	41.9	inactive	Tlr12	1
50.8	44.4	inactive	Tlr12	2
70.7	72.5	inactive	Tlr12	3
104	87.4	inactive	Prr7	1
88.1	59.5	inactive	Prr7	2
57.3	75.9	inactive	Prr7	3
76.9	79.8	inactive	Arl1	1
113	88.6	inactive	Arl1	2
34.5	41.6	inactive	Arl1	3
62.8	72.1	inactive	Sh3pxd2a	1
60.5	70.6	inactive	Sh3pxd2a	2
89.7	79.7	inactive	Sh3pxd2a	3
17.9	40.5	inactive	Sh3pxd2a	4
69.2	79.8	inactive	Sh3pxd2a	5
107	111	inactive	Sh3pxd2a	6
92	85.3	inactive	Rbm45	1
87.7	86.8	inactive	Rbm45	2
57.7	57.5	inactive	Rbm45	3
50.1	104	inactive	Nin	1
94.8	74.5	inactive	Nin	2
58.1	73.6	inactive	Nin	3
59.5	55.8	inactive	Or56b35	1
53.3	57.9	inactive	Or56b35	2
47.3	67.3	inactive	Or56b35	3
51.3	62.9	inactive	Stat6	1
61.3	34.7	inactive	Stat6	2
63	63.8	inactive	Stat6	3
80.3	91.2	inactive	Cript	1
54.5	74.6	inactive	Cript	2
70.7	70.7	inactive	Cript	3
92.1	74.4	inactive	Trim59	1
60.5	57.5	inactive	Trim59	2
66.7	65.2	inactive	Trim59	3
72.1	76.2	inactive	Gpr68	1
53.7	71.2	inactive	Gpr68	2
61.1	77	inactive	Gpr68	3
84.7	85.3	inactive	E2f5	1
92.9	87.4	inactive	E2f5	2
87.4	82.2	inactive	Vat1	1
69.7	53.9	inactive	Vat1	2
88.3	57.4	inactive	Vat1	3
105	79.9	inactive	Dcstamp	1
73.1	74.6	inactive	Dcstamp	2
92.5	73.5	inactive	Dcstamp	3
52.5	84.4	inactive	Rubcnl	1
95.7	87.5	inactive	Rubcnl	2
106	130	inactive	Rubcnl	3
108	66.8	inactive	Pyurf	1
108	89.5	inactive	Pyurf	2
95.6	71.1	inactive	Pyurf	3
93.8	113	inactive	Btbd10	1
86.8	83.6	inactive	Btbd10	2
0	123	inactive	Tnf	1
69	76	inactive	Tnf	2
82.5	68.7	inactive	Rasd1	1
81.7	72.9	inactive	Rasd1	2
87	60	inactive	Rasd1	3
75.2	88.2	inactive	Srek1ip1	1
73.7	94.9	inactive	Srek1ip1	2
65.4	45.7	inactive	Srek1ip1	3
78.1	60.8	inactive	Ly6g6c	1
93	72.6	inactive	Ly6g6c	2
122	64.2	active	Ly6g6c	3
79.9	68.2	inactive	Tsga13	1
90.8	115	inactive	Tsga13	2
178	104	active	Tsga13	3
75.3	88	inactive	Plxnc1	1
108	114	inactive	Mmp20	1
71.8	56.2	inactive	Mmp20	2
78.6	81.6	inactive	Or8b12b	1
128	81	active	Or8b12b	2
59.6	78.3	inactive	Or8b12b	3
51.7	76.4	inactive	Otol1	1
36.5	47.4	inactive	Otol1	2
70.1	74.5	inactive	Otol1	3
50.6	40.8	inactive	Figla	1
56.4	62.3	inactive	Figla	2
97.6	81.4	inactive	Figla	3
105	115	inactive	Cd40	1
65	71.2	inactive	Cd40	2
73.6	46.4	inactive	Cd40	3

Single entries from the entries so far.
Entry for Or56b35 #2 in “viability (ATP), % of control”: 57.9
For “viability (ATP), % of control”, Prr7 #2 shows 59.5
Under “viability (ATP), % of control”, Ly6g6c #3 shows 64.2
Under “viability (ATP), % of control”, Ly6g6c #2 has 72.6
Value of Tsga13 #3 under “GFP, % of control”: 178
Result for Tnf #1 in “outcome”: inactive
